This is one part of the list.
The targets below were run with Cc1cc(Nc2cc(CN3CCOCC3)c3nc(C)c(Cc4ccc(Cl)cc4F)n3n2)n[nH]1 [gandotinib] (assay: log2 fold change, soluble protein after heating vs DMSO (PISA); higher = thermal stabilisation; K562 lysate, 10 uM; active = over 0.2 and 3.5 SD of the protein, either way, in both replicates (recomputed)).
In short: (§1)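 Following dounce homogenisation of K562 pellets in PBS pH 7.4 with 1 mM MgCl2, crude extract at 1 mg/mL protein was incubated for 30 min with 10 μM compound. Aliquots were then heated for 3 min over 48°C-58°C and pooled, NP-40 was added to 0.5% at 4°C, and soluble protein was recovered as the supernatant at 21,000xg for 90 min. Channel-sum-equalised TMTpro 16plex LC-MS/MS quantified this protein. Each value, from duplicates, is a log-two fold change in thermal stability relative to solvent controls.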

By UniProt entry, the sequences of proteins in these tests, tags left out. Where a name states a change or a piece, a line headed by the entry shows the natural chain unless it says otherwise.
UniProt P62166, whole entry, looked up: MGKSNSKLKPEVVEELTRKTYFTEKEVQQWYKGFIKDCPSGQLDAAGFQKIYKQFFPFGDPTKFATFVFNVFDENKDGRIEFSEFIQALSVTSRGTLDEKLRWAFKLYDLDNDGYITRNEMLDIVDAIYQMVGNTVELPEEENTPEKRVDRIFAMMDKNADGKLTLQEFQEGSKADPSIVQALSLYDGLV
UniProt Q96BF6: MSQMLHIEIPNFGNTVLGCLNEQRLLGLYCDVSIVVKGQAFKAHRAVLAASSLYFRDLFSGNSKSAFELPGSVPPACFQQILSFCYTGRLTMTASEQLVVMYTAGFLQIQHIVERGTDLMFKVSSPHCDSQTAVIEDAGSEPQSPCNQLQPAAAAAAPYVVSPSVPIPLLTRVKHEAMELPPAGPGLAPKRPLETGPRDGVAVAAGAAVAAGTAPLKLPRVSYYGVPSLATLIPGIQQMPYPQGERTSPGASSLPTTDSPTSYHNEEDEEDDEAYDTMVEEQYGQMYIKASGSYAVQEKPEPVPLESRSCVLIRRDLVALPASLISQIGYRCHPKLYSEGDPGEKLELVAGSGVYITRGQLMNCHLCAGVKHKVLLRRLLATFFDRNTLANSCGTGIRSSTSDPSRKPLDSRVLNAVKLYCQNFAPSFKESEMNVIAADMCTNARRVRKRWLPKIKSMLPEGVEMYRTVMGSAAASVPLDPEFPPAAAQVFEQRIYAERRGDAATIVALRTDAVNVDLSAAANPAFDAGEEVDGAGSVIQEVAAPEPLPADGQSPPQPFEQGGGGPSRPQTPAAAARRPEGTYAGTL
UniProt Q9HD67, whole entry, looked up: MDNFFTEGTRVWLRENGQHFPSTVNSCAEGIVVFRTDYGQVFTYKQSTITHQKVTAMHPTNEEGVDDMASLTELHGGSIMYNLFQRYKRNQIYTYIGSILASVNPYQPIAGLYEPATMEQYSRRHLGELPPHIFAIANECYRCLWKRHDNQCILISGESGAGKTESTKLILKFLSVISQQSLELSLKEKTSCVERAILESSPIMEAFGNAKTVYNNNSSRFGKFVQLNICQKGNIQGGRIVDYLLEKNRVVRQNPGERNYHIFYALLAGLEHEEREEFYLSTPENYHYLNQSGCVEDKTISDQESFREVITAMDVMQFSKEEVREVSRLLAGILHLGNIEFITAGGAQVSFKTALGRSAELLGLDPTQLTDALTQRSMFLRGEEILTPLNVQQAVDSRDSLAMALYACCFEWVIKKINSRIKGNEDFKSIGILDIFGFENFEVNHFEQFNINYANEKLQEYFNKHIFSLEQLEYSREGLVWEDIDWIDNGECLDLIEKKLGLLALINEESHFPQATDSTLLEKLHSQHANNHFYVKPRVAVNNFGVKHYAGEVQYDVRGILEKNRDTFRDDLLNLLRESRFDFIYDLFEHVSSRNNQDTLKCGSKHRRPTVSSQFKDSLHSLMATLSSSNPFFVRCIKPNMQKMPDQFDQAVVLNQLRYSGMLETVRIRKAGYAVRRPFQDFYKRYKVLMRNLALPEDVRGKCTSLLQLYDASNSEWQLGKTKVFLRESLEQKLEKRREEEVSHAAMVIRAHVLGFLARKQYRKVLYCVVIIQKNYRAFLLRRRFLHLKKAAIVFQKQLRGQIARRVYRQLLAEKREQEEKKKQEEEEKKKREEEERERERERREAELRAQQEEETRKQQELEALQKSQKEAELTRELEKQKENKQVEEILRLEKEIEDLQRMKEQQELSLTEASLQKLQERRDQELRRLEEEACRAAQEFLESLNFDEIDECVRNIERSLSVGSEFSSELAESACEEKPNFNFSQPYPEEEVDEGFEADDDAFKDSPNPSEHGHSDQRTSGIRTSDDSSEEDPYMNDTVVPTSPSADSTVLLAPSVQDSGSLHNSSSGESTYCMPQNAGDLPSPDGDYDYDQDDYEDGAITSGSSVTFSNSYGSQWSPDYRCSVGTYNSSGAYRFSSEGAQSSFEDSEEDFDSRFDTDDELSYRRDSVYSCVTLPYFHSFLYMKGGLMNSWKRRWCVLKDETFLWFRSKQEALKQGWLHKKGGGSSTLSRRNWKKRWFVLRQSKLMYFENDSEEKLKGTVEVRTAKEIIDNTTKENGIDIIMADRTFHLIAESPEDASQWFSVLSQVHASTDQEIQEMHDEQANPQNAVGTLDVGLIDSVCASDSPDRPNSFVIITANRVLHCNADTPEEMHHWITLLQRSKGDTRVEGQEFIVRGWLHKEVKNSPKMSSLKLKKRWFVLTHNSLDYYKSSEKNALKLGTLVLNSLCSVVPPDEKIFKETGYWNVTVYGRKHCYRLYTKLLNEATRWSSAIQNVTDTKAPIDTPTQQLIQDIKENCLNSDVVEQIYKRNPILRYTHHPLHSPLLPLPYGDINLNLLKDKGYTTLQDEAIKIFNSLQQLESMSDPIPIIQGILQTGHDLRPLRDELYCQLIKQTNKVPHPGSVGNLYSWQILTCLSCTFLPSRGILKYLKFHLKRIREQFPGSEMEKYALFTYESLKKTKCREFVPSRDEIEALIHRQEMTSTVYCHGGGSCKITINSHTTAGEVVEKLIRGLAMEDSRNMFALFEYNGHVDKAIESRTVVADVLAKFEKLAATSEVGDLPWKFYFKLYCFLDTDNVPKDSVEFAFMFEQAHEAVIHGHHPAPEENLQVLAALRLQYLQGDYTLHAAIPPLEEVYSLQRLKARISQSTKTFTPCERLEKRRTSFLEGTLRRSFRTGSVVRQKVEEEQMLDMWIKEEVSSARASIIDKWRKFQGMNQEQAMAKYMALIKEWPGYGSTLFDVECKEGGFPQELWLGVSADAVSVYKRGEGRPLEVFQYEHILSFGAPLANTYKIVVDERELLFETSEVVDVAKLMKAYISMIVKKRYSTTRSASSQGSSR
UniProt P60660, whole entry, looked up: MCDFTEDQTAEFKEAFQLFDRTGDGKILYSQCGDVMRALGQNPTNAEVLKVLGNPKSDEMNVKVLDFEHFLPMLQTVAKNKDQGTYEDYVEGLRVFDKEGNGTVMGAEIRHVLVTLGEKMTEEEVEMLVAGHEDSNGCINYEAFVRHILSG
UniProt P10244: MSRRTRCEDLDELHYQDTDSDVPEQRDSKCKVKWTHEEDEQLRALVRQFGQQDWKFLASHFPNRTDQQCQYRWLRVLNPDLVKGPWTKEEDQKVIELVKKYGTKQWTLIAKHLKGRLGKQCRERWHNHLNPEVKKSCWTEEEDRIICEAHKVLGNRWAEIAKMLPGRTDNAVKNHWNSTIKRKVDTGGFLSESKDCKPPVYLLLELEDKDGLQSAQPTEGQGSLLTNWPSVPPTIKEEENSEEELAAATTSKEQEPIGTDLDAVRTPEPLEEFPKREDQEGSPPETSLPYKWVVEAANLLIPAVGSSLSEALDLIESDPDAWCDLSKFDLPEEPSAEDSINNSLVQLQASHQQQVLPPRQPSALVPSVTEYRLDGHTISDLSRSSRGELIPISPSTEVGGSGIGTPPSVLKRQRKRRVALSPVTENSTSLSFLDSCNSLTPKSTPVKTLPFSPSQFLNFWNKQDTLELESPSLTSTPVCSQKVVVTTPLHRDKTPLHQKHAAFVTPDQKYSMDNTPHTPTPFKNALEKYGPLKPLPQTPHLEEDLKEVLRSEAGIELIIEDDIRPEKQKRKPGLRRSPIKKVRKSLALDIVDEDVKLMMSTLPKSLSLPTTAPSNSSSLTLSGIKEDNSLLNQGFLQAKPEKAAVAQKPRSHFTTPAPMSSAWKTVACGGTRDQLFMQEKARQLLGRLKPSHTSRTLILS
UniProt P84157: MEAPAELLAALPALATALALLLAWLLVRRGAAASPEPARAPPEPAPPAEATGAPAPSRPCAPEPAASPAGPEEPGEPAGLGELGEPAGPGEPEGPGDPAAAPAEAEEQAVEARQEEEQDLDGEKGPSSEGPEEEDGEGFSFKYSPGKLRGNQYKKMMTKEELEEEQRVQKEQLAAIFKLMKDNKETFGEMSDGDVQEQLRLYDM
UniProt Q15080: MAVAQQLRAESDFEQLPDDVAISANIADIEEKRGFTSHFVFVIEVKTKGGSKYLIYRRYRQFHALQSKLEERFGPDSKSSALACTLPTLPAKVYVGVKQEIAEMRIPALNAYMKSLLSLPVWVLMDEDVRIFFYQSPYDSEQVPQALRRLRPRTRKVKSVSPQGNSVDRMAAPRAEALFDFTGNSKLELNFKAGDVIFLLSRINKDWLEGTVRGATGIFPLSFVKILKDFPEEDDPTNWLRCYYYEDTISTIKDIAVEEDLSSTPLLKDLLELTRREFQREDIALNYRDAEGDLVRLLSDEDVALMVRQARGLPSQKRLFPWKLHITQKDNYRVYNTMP
UniProt Q8N6N6: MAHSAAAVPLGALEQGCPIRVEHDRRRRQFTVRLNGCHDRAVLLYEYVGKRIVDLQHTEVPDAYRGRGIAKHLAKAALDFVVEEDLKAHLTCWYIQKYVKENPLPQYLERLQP
UniProt G3V1V0: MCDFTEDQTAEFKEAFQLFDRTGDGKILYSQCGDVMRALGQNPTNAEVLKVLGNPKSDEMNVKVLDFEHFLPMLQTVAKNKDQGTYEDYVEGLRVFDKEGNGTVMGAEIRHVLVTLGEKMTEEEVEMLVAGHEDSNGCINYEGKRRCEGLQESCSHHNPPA
UniProt Q9HCH0: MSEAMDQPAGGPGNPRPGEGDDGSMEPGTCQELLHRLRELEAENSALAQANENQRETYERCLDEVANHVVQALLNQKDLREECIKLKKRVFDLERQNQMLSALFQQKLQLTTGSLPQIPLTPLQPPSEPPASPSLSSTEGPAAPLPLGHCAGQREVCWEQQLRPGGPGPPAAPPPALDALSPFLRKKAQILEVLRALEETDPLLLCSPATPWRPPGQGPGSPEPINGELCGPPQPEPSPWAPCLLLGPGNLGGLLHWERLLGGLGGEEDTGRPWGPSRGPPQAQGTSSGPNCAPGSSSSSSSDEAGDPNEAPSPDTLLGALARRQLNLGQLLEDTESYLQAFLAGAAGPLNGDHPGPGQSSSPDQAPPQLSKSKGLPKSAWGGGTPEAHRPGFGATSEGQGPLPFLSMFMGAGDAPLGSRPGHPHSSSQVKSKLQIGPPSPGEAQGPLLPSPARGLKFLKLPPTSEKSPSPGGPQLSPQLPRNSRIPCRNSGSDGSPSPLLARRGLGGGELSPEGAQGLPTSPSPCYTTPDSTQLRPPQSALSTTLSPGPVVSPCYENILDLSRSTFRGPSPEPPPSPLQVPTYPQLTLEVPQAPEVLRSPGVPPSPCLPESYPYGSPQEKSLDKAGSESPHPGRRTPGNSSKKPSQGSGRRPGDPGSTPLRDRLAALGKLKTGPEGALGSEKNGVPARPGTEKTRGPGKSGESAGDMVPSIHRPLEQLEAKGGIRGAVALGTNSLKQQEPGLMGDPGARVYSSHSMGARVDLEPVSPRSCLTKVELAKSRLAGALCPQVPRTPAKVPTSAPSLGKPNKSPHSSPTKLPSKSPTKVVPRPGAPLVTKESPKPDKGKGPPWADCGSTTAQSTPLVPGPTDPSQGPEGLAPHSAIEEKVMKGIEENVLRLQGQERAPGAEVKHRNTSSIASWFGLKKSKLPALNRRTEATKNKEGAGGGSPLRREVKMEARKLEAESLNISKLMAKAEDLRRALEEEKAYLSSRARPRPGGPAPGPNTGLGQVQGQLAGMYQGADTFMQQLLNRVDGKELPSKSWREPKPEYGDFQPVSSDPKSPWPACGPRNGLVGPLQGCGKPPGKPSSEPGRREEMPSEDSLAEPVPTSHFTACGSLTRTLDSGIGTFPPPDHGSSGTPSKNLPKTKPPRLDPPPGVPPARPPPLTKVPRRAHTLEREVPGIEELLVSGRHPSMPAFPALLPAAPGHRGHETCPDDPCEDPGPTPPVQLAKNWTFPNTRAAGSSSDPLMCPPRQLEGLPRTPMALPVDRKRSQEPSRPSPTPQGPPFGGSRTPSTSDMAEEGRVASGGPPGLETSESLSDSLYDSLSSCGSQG
UniProt Q15742: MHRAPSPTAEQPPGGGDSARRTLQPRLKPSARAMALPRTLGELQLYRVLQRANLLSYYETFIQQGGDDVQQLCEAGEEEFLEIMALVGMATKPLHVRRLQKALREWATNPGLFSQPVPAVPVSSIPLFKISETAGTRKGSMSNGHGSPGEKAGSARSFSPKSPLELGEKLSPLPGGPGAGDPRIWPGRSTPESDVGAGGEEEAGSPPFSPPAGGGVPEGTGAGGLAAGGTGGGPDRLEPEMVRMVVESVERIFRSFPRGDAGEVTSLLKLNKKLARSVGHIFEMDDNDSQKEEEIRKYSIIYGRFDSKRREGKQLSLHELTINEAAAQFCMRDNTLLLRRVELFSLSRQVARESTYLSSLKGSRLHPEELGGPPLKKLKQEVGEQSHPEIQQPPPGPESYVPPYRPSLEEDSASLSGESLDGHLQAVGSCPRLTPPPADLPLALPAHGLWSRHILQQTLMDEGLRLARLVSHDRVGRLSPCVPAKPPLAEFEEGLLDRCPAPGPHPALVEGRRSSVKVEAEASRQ
UniProt Q8WUY8: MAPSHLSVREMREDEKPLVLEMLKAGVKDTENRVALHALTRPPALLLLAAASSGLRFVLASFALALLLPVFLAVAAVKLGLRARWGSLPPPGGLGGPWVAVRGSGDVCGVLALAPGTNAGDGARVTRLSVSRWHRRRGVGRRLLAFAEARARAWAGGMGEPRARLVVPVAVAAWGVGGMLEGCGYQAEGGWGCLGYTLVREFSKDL

| Target | log2 fold change |
| --- | --- |
| NCS1 (UniProt P62166) | inactive: 0.088 |
| NACC2 (UniProt Q96BF6) | inactive: 0.129 |
| NAB1 (UniProt Q13506) | inactive: 0.063 |
| MYL12A (UniProt P19105) | inactive: 0.14 |
| MYO10 (UniProt Q9HD67) | inactive: -0.016 |
| MYL6 isoform 2 (UniProt P60660) | inactive: 0.143 |
| MYH3 (UniProt P11055) | inactive: -0.224 |
| MYBL2 (UniProt P10244) | inactive: -0.286 |
| MXRA7 (UniProt P84157) | inactive: -0.008 |
| MYC isoform 2 (UniProt P01106) | inactive: 0.069 |
| NCF4 (UniProt Q15080) | inactive: 0.203 |
| NATD1 (UniProt Q8N6N6) | inactive: -0.026 |
| MYL6 (UniProt G3V1V0) | inactive: 0.014 |
| NCKAP5L (UniProt Q9HCH0) | inactive: -0.066 |
| NAMPT (UniProt C9JF35) | inactive: 0.011 |
| MUC5B (UniProt Q9HC84) | inactive: 0.173 |
| NAB2 (UniProt Q15742) | inactive: -0.035 |
| NAT14 (UniProt Q8WUY8) | inactive: 0.024 |
| NCOA1 isoform 2 (UniProt Q15788) | inactive: -0.103 |

The targets below were run with Cc1cc(Nc2cc(N3CCN(C)CC3)nc(Sc3ccc(NC(=O)C4CC4)cc3)n2)n[nH]1 [tozasertib] in the same assay as above.
In short: as §1

| Target | log2 fold change |
| --- | --- |
| NCS1 (UniProt P62166) | inactive: 0.009 |
| NAA16 (UniProt Q6N069) | inactive: -0.016 |
| NACC2 (UniProt Q96BF6) | inactive: 0.088 |
| MYL6 isoform 2 (UniProt P60660) | inactive: -0.088 |
| MYBL2 (UniProt P10244) | inactive: 0.001 |
| NABP1 (UniProt Q96AH0) | inactive: -0.135 |
| MXRA7 (UniProt P84157) | inactive: -0.05 |
| NCF4 (UniProt Q15080) | inactive: -0.032 |
| NATD1 (UniProt Q8N6N6) | inactive: 0.228 |
| MYL6 (UniProt G3V1V0) | inactive: 0.03 |
| NCKAP5L (UniProt Q9HCH0) | inactive: -0.124 |
| MUC5B (UniProt Q9HC84) | inactive: 0.993 |
| NAB2 (UniProt Q15742) | inactive: 0.039 |
| NAT14 (UniProt Q8WUY8) | inactive: -0.067 |
| NCLN isoform 2 (UniProt Q969V3) | inactive: 0.083 |

Each target was assayed with Cc1ccc(-n2nc(C(C)(C)C)cc2NC(=O)Nc2ccc(OCCN3CCOCC3)c3ccccc23)cc1 [doramapimod] in the same assay as above.
In short: as §1

| Target | log2 fold change |
| --- | --- |
| NCS1 (UniProt P62166) | inactive: -0.047 |
| NACC2 (UniProt Q96BF6) | inactive: 0.083 |
| NAB1 (UniProt Q13506) | inactive: 0.075 |
| MYO10 (UniProt Q9HD67) | inactive: -0.321 |
| MYL6 isoform 2 (UniProt P60660) | inactive: -0.032 |
| MYBL2 (UniProt P10244) | inactive: 0.017 |
| MXRA7 (UniProt P84157) | inactive: 0.041 |
| NARS1 (UniProt K7ENF0) | inactive: -0.117 |
| NCF4 (UniProt Q15080) | inactive: -0.032 |
| NATD1 (UniProt Q8N6N6) | inactive: 0.028 |
| MYL6 (UniProt G3V1V0) | inactive: 0.055 |
| NCKAP5L (UniProt Q9HCH0) | inactive: -0.072 |
| MUC5B (UniProt Q9HC84) | inactive: -0.013 |
| NAB2 (UniProt Q15742) | inactive: 0.078 |
| NAT14 (UniProt Q8WUY8) | inactive: -0.118 |
| NCLN isoform 2 (UniProt Q969V3) | inactive: -0.217 |

The targets below were run with Cc1ccc(NC(=O)c2ccc(CN3CC[C@H](N(C)C)C3)c(C(F)(F)F)c2)cc1Nc1nccc(-c2cncnc2)n1 [bafetinib] in the same assay as above.
In short: as §1

| Target | log2 fold change |
| --- | --- |
| MYH7 (UniProt P12883) | inactive: -0.45 |
| NCS1 (UniProt P62166) | inactive: -0.029 |
| NAA16 (UniProt Q6N069) | inactive: 0.022 |
| NAB1 (UniProt Q13506) | inactive: -0.224 |
| MYO10 (UniProt Q9HD67) | inactive: -0.456 |
| MXRA8 isoform 2 (UniProt Q9BRK3) | inactive: 0.024 |
| NCF4 (UniProt Q15080) | inactive: -0.294 |
| NATD1 (UniProt Q8N6N6) | inactive: 0.052 |
| NAB2 (UniProt Q15742) | inactive: 0.051 |
| N4BP3 (UniProt O15049) | inactive: 0.013 |
| NCL (UniProt H7BY16) | inactive: 0.057 |
| MYH2 (UniProt Q9UKX2) | inactive: -0.132 |

These targets were tested with Cc1cccc(CC(=O)N2CCc3c2ccc(-c2cn(C)c4ncnc(N)c24)c3F)n1 in the same assay as above.
In short: as §1

| Target | log2 fold change |
| --- | --- |
| NCS1 (UniProt P62166) | inactive: 0.05 |
| NACC2 (UniProt Q96BF6) | inactive: 0.021 |
| NAB1 (UniProt Q13506) | inactive: 0.026 |
| MYL12A (UniProt P19105) | inactive: -0.025 |
| MYO10 (UniProt Q9HD67) | inactive: -0.029 |
| MYL6 isoform 2 (UniProt P60660) | inactive: 0.204 |
| MYH3 (UniProt P11055) | inactive: -0.208 |
| MYBL2 (UniProt P10244) | inactive: -0.184 |
| MXRA7 (UniProt P84157) | inactive: 0.096 |
| MYC isoform 2 (UniProt P01106) | inactive: 0.028 |
| NCF4 (UniProt Q15080) | inactive: 0.197 |
| NATD1 (UniProt Q8N6N6) | inactive: 0.025 |
| MYL6 (UniProt G3V1V0) | inactive: 0.049 |
| NCKAP5L (UniProt Q9HCH0) | inactive: 0.065 |
| NAMPT (UniProt C9JF35) | inactive: 0.118 |
| MUC5B (UniProt Q9HC84) | inactive: 0.603 |
| NAB2 (UniProt Q15742) | inactive: 0.009 |
| NAT14 (UniProt Q8WUY8) | inactive: 0.069 |
| NCOA1 isoform 2 (UniProt Q15788) | inactive: 0.005 |
